In the supplement of paper PMC10735217:
Where a name gives a salt, the structure may show the parent alone. The list shows a part of the results. Repeats in this data set agree poorly, so a single value says little.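 Human kidney-derived cells stably carry a construct in which eight TEAD-binding elements drive luciferase, measured by luminescence in a drug-repurposing library screen. A hit is any compound whose signal exceeds the plate mean by more than five robust Z scores.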

Test system: HEK293A TEAD-LUC reporter
Experiment: TEAD-luciferase reporter activity (YAP activation), robust Z score vs plate; higher = stronger YAP/TEAD activation
Settings: 24 h

| SMILES | TEAD-luciferase reporter activity (compound concentration: 2 uM) | TEAD-luciferase reporter activity (compound concentration: 200 nM) | TEAD-luciferase reporter activity (compound concentration: 10 uM) |
| --- | --- | --- | --- |
| O=C1C[C@@H](c2ccc(O)cc2)Oc2cc(O)cc(O)c21 [Naringenin] | inactive: -1.49 | – | – |
| O=C1C[C@@H](c2ccc(O)cc2)Oc2cc(O)cc(O)c21 | – | inactive: 0.152 | inactive: 0.546 |
| Oc1cccc(c1)/C/1=C/2\C=CC(=N2)/C(=c\2/cc/c(=C(/c3[nH]c(/C(=C/4\N=C1C=C4)/c1cccc(c1)O)cc3)\c1cccc(c1)O)/[nH]2)/c1cccc(c1)O [meta-HK7] | – | inactive: -0.842 | inactive: 0.113 |
| O=C1NCCN1C1CCN(CC[C@H]2COc3ccccc3O2)CC1 [azaloxan] | inactive: -0.126 | inactive: 1.07 | inactive: -1.91 |
| [O-][n+]1ccc(CC(c2ccc(C(O)(C(F)(F)F)C(F)(F)F)cc2)c2ccc(OC(F)F)c(OC(F)F)c2)cc1 (stereo not given) | inactive: -0.417 | inactive: -0.402 | inactive: 2.27 |
| CCc1[nH]c(O)nc1C(=O)c1ccncc1 [piroximone] | inactive: 0.318 | inactive: -2.13 | inactive: -0.299 |
| C[N+](C)(C)CCOC(Cc1ccccc1)c1ccccc1 (stereo not given) | inactive: -0.949 | inactive: -1.49 | inactive: 1.15 |
| O=c1[nH]c2c(O)ccc(CCNCCS(=O)(=O)CCCOCCc3ccccc3)c2s1 [Sibenadet hydrochloride] | inactive: -1.43 | inactive: -1.09 | inactive: -1.53 |
| O=C(O)Cc1ccc2c(c1)SCc1ccccc1C2=O | inactive: 0.0507 | inactive: -1.5 | inactive: -0.941 |
| CCc1nc(C2CC2)c(C(N)=O)n1Cc1ccc2oc(-c3ccccc3NS(=O)(=O)C(F)(F)F)c(Br)c2c1 | inactive: -1.67 | inactive: -0.0517 | inactive: -1.33 |
| c1ccc(C23NC(=Nc4nc5ccccc5[nH]4)NC2(c2ccccn2)NC(=Nc2nc4ccccc4[nH]2)N3)nc1 (stereo not given) | inactive: 0.61 | inactive: -1.87 | inactive: -0.17 |
| COc1cccc(CS(=O)c2nc3ccncc3[nH]2)c1 (stereo not given) | inactive: -0.0702 | inactive: -0.212 | inactive: 0.376 |
| CCCCCCCCCCCCCCCCCCCCCCCCCCCCO | inactive: -2.51 | active: 5.56 | inactive: 0.758 |
| CCS(=O)(=O)c1ccc(F)cc1 | inactive: -0.938 | inactive: -1.86 | inactive: -0.275 |
| Cc1ccc(-c2cccc(CN3CCCC3C(=O)NCc3cccc(C(F)(F)F)c3)c2)cc1Cl (stereo not given) | – | inactive: -1.52 | inactive: 0.474 |
| CC(=O)NCC1CC(c2ccc(C3=CCN(C(C)=O)CC3)cc2)=NO1 (stereo not given) | inactive: -0.898 | inactive: 0.273 | inactive: -1 |
| CO[C@H]1/C=C/O[C@@]2(C)Oc3c(C)c(O)c4c(=O)c(c5oc6cc(N7CCN(CC(C)C)CC7)cc(O)c6nc-5c4c3C2=O)NC(=O)/C(C)=C\C=C\[C@H](C)[C@H](O)[C@@H](C)[C@@H](O)[C@@H](C)[C@H](OC(C)=O)[C@@H]1C [Rifalazil] | inactive: -0.703 | inactive: -1.43 | inactive: -0.525 |
| O=C(c1ccccc1Cl)N1CCC2(CC1)Cc1ccccc1NC2=O | – | inactive: -2.46 | inactive: 1.17 |

| SMILES | TEAD-luciferase reporter activity (compound concentration: 2 uM) | TEAD-luciferase reporter activity (compound concentration: 200 nM) | TEAD-luciferase reporter activity (compound concentration: 10 uM) |
| --- | --- | --- | --- |
| Cc1cc(-c2cnn3c(NC[C@H]4C[C@@](C)(O)C4)cc(Oc4cccnc4)nc23)ccc1C(=O)NC1CC1 | inactive: -0.598 | inactive: -0.254 | inactive: 0.0467 |
| CO/N=C1/C=C(C#Cc2cccc(C)n2)CCC1 | inactive: 1.73 | inactive: 2.43 | inactive: 1.65 |
| CN1CCN(c2c(F)cc3c(=O)c(C(=O)O)cn4c3c2SCC4)CC1 [rufloxacin monohydrochloride] | – | inactive: -1.33 | inactive: -2.45 |
| CN1CCN(c2c(F)cc3c(=O)c(C(=O)O)cn4c3c2SCC4)CC1 [rufloxacin] | inactive: -2.05 | – | – |
| COc1ccc2cc(-c3cc(-c4cc(Cl)cc(Cl)c4)nn3[C@@H](C)c3ccc(C(=O)NCCC(=O)O)cc3)ccc2c1 | inactive: -1.17 | inactive: -0.609 | inactive: 1.9 |
| CC(C)NCC(O)COc1ccc(CC(=O)OCCC23CC4CC(CC(C4)C2)C3)cc1 (stereo not given) [Adaprolol] | inactive: -0.537 | inactive: -1.02 | active: 6.66 |
| C[C@@H]1CC(=O)c2c(ccc3c2C(=O)c2cccc(O)c2C3=O)C1 [Ochromyci] | inactive: -0.256 | inactive: -1.4 | inactive: -0.512 |
| C[C@H](O)C(=O)O [ammonium lactate] | inactive: -1.74 | inactive: 2.58 | inactive: 1.43 |
| O=C1CCc2ccc(OCCCCN3CCN(c4cccc5ccccc45)CC3)nc2N1 | inactive: -0.285 | inactive: -0.998 | inactive: 0.443 |
| COc1ccc2[nH]c(SCc3ncc(C)c(OC)c3C)nc2c1 [Ufiprazole] | inactive: -0.162 | inactive: -1.41 | inactive: 4.55 |
| CCCC(CCC)c1ccc(OCc2ccc(-c3csc(CN(CC(=O)O)Cc4ncc(C(C)(C)C)s4)n3)cc2)cc1 | inactive: 1.05 | inactive: 0.801 | inactive: 4.16 |
| COc1ccc(F)cc1-c1cc2c(N=O)c(O)[nH]c2c2c1CCN(C)C2 | inactive: -0.959 | inactive: 0.508 | inactive: 1.88 |
| [Cl][Ru-2]([Cl])([Cl])([Cl])([Cl])[Cl] | – | inactive: 2.86 | inactive: 4.35 |
| CCCc1nc(C(C)(C)O)c(C(=O)OCc2oc(=O)oc2C)n1-c1ccc(-c2ccccc2-c2nnn[nH]2)cc1 | inactive: -0.762 | inactive: -0.792 | inactive: -0.457 |
| CCCCC(=O)C1c2cccc(O)c2C(=O)c2c(O)cccc21 | inactive: -1.22 | inactive: 0.393 | inactive: 0.668 |
| N#Cc1ccc(Oc2ccc3c(c2)COB3O)cc1C#N | inactive: -0.79 | inactive: -0.422 | inactive: -0.408 |
| CCCCCC(=O)N[C@@H](Cc1ccc(O)cc1)C(=O)OC | inactive: 0.0137 | inactive: -1.88 | inactive: -2.31 |

Copied from the list.
For TEAD-luciferase reporter activity (compound concentration: 200 nM), CN1CCN(c2c(F)cc3c(=O)c(C(=O)O)cn4c3c2SCC4)CC1 [rufloxacin monohydrochloride] shows inactive: -1.33
For TEAD-luciferase reporter activity (compound concentration: 2 uM), CN1CCN(c2c(F)cc3c(=O)c(C(=O)O)cn4c3c2SCC4)CC1 [rufloxacin] shows inactive: -2.05
For TEAD-luciferase reporter activity (compound concentration: 200 nM), Cc1cc(-c2cnn3c(NC[C@H]4C[C@@](C)(O)C4)cc(Oc4cccnc4)nc23)ccc1C(=O)NC1CC1 shows inactive: -0.254
